The other results are listed elsewhere or left out.
B1: il2ra_site2_2erj_sap_35_mot_8abaa092650c7ec0dcd26c08d75eddca_0001_1_000000049_0001_35_49_H_._HHH_b2_08271_af2_0001_0000200012_0000001_0_0001_af2pred_0001_af2pre … (protein)
chain: SDERLLELAAEKLAERAGVPDVSVEVHNGTLEVEFTGTTERLKEVLEALEFAAKAQGLEFESSSE
B2: il2ra_site1_3nfp_sap_7_mot_HHH_b2_04441_af2_000000141_0001_1_20_H_._HHH_b2_08321_0001_0000200005_0000001_0_0001_af2pred_0001_af2pred (protein)
chain: SSSSSSSELEELLREANELKKRGNPEEAKKVLEQAEKAAEERNNENARRVVEAMLRLLSSSSSSS
B3: il2ra_site1_2b5i_normal_mot_HHH_b1_06833_000000178_0001_1_19_H_._HHH_b1_07157_0001_0000200017_0000001_0 (protein)
chain: SSSSSEHIKYIVRVVLRLAHEYNLSLEQMRELARLAAELAQRGYSEEEIEEELREKAEQLGSSSS
B4: il2ra_site1_2b5i_normal_mot_HHH_b1_07881_af2_000000049_0001_1_19_H_._HHH_b1_08435_0001_0000200010_0000001_1_af2pred_dldesign_0_af2pred (protein)
chain: SSSSSDPEAEIDRLFNEALELKRQGKLEEAKKLLEEAIKLAKANGDEKAVAELEYFLSLLSSSSS
B5: il2ra_site2_2erj_sap_28_mot_HHH_b2_01204_af2_000000051_0001_19_34_H_._HHH_b2_05199_0001_0000300050_0000001_0_0001 (protein)
chain: SSSSTEELREIFELANALLEAIQNNDDELFREIYKEAEELIEKTNSENAEEHLRWLERHFNSSSS
B6: il2ra_site2_3nfp_normal_mot_HHH_b1_07095_000000265_0001_1_20_H_._HHH_b1_04266_af2_0001_0000200008_0000001_0 (protein)
chain: SSSSDEFRERVEELVEKAEELLERGNPEEARRVLARATALAYEGNDFEAFALVNELLEKLTSSSS
B7: il2ra_site1_3nfp_sap_13_mot_HHH_b2_04441_af2_000000141_0001_1_20_H_._HHH_b2_00593_0001_0000100008_0000001_0_0001_af2pred_0001_af2pred_swapped (protein)
chain: SSSSSEVTELLRRALEAAQNGNPEEAVELLEEAKRLAEELNDERILKLIEADLRVARRLLSSSSS
B8: il2ra_site1_3nfp_normal_mot_eb5a5eebac1e5153f932cc6c3f4b2787_0001_af2_000000065_0001_18_33_H_._HHH_b2_04044_0002_0000100009_0000001_0 (protein)
chain: SSSSSDEEIRERVEELLEEAKHIPDYREASRLVEEAYRLAAELGDPELSELIYRVMREIVSSSSS
B9: il2ra_site1_1z92_normal_mot_922575b2e9738a49cb663a995786872c_0001_af2_000000234_0001_18_32_H_._ae2d1c0b5552e85e62693402b9c72bf7_0001_af2_0001_0000300017_0000001 … (protein)
chain: NRDSREQIEEAIKKNDLELLKEILERSEEQSGDPRLAKQYLKIAIKRLLGDPEKAREIVERIEQR
B10: il2ra_site1_3nfp_sap_14_mot_HHH_b1_04197_000000021_0001_41_57_H_._HHH_b2_03447_af2_0001_0000300002_0000001_0_0001 (protein)
chain: DRAFRRAIELAQKQDEELAELLEEVVRLLKEEGDPRLLELLDEAMQLIAKGNPEEAKRVLEEALK
B11: il2ra_site2_2erj_normal_mot_6ec3e94b46d95805cdcdc10c0c108f03_0001_af2_000000040_0001_36_50_H_._HHH_b2_07873_af2_0001_0000300042_0000001_0 (protein)
chain: SSSSNEELKKLYELANRIMHALANGDEELFEELLQELKELAEKLDSENAKELAELLEEHGSSSSS
B12: il2ra_site1_3nfp_sap_12_mot_HHH_b2_05592_000000000_0001_42_56_H_._HEEHE_1033_0001_0000100003_0000001_0_0001_af2pred_0001_af2pred_1_swapped (protein)
chain: GKEEALELLKEAAERLNDPALRFIARALEEALKRDPELAKRILRRLVEITGDPVLEEVLELLESD
B13: il2ra_site1_1z92_normal_mot_HHH_b2_04342_af2_000000114_0001_23_39_H_._HHH_b2_01541_0001_0000100015_0000001_0 (protein)
chain: SSSSDEAVERLVEFLTRNAELAIEHGDERALKAALKIMKSLAKLHNDEELRKLIEELEEEGSSSS
B14: il2ra_site2_3nfp_sap_26_mot_ems_p1-15H-GBL-16H-GBL-14H_0089_0001_0001_0001_af2_000000072_0001_19_33_H_._HHH_b1_04644_0001_0000200032_0000001_0_0001 (protein)
chain: SSSSDKSEEYLRIALELIEEAIEDGNPEVARRLIETARAMAESHNDEEVLERLEELLEEISSSSS
B15: il2ra_site2_2erj_sap_24_mot_720936397f2d31669eff21710c18a4fc_0001_000000071_0001_37_51_H_._HHH_b1_00159_0001_0000100007_0000001_0_0001 (protein)
chain: SSSSSDDLHRLYELAVRILHLISKGDPEEAEKLLEELRELAEEVDSENAKEITESLEKLLSSSSS
B16: il2ra_site2_3nfp_normal_mot_HHH_b2_07129_000000128_0001_19_36_H_._HHH_b1_01121_af2_0001_0000300014_0000001_0 (protein)
chain: SSSSSEEVEELLERIEELLQRNNREEARKLVQRVAQLAFELRDHELFARVADLRLAVEQLSSSSS
B17: il2ra_site2_3nfp_normal_mot_HHH_b1_04158_af2_000000151_0001_42_56_H_._HHH_b1_01821_0001_0000500022_0000001_0 (protein)
chain: SSSSDKAHRYLRAFLRLIELAIEAGDREAARRHLEAAKLLAEAKEDEEIEELLEELEELINSSSS
B18: il2ra_site1_2b5i_sap_9_mot_9b27c49f4244f023ba89377d59a42b61_0001_000000075_0001_18_32_H_._HHH_b1_06239_0002_0000300029_0000001_0_0001 (protein)
chain: SSSDDNELARFATEVVWRLRWHLGLSNEQAQELNKRASELVWRGVSPEEIEEILEELAERLSSSS
B19: il2ra_site1_1z92_normal_mot_HHH_b1_01765_000000215_0001_19_35_H_._HHH_b1_04234_0001_0000400037_0000001_0 (protein)
chain: SSSSSKAEERLEFAIRNLKLLLERGNEKAAEWAARLLLALARVVGDEEAKRYVEEVEQELSSSSS
B20: il2ra_site2_3nfp_sap_15_mot_HHH_b2_08110_af2_000000162_0001_23_39_H_._17723695ccae110160e5b234edaa95c1_0001_af2_0001_0000100014_0000001_0_0001 (protein)
chain: SSSSDVEEEVRRLLEEAEELRKQGNPEEVRRLVAEAAHLAFENNDHEAFALIADVFYKLAKSSSS
B21: il2ra_site1_3nfp_sap_19_mot_HHH_b1_01231_af2_000000170_0001_1_16_H_._HHH_b1_05450_af2_0001_0000100012_0000001_0_0001 (protein)
chain: SADEYMVELLKKDGFPPEKIVEQLVEAARRVYNIPPEEAEKWLKKRLEELGDPLAEVVEELAEEK
B22: il2ra_site2_3nfp_sap_19_mot_HHH_b1_04960_000000149_0001_23_39_H_._HHH_b2_01436_0001_0000600058_0000001_0_0001_af2pred_0001_1_af2pred_swapped (protein)
chain: SSSSSDEELRLIEKLLREAEEEGDEELIRHLAAALASLAFELNDEERLKEARRILAEIANSSSSS
B23: il2ra_site1_2b5i_sap_7_mot_HHH_b1_08075_000000186_0001_43_57_H_._HHH_b1_06101_0001_0000700022_0000001_0_0001_af2pred_dldesign_0_af2pred (protein)
chain: SSSSSRRETLLEVERLVKEADKLEDKEEARKVLERALELARAGRDPVAARIVEERLEEISSSSSS
B24: il2ra_site2_3nfp_sap_18_mot_HHH_b2_05281_000000198_0001_39_56_H_._738ccc93aada9afe30a0d8950425dc90_0001_1_0001_0000300030_0000001_0_0001_af2pred_0001_af2pred (protein)
chain: DARKRIRELAEELGIPPRDIMLIIALILLLEQKGFSPEEIEKILEERAKKRGDPALKRVLEELRK

Target: il2ra, P01589
Experiment: yeast display titration

Apparent Kd, inactive:
B1 no binding seen
B2 no binding seen
B3 no binding seen
B4 no binding seen
B5 no binding seen
B6 no binding seen
B7 no binding seen
B8 no binding seen
B9 no binding seen
B10 no binding seen
B11 no binding seen
B12 no binding seen
B13 no binding seen
B14 no binding seen
B15 no binding seen
B16 no binding seen
B17 no binding seen
B18 > 420 nM
B19 no binding seen
B20 no binding seen
B21 no binding seen
B22 no binding seen
B23 no binding seen
B24 no binding seen

Two consecutive records already listed, quoted:
Apparent Kd, inactive:
B20 no binding seen
B21 no binding seen
